{"source": "the supplement of paper PMC2577665", "note": "± gives the standard deviation of the averaged measurements. Single values of this set are uncertain.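 Every well combined ERalpha-negative HeLa cells, transfected ERalpha, a two-estrogen-response-element reporter, and overexpression of a single poorly characterized human cDNA. Any gene lowering the signal to at most the BRCA1 positive control level, about 0.6 of empty vector, was called a repressor hit.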", "data": [{"system": "ERE-luciferase reporter with exogenous ERalpha in HeLa cells", "assay": "relative ERE luciferase activity (Firefly/Renilla) upon cDNA overexpression, relative to empty vector (fold of empty vector); higher = stronger ERalpha transactivation (less repression)", "settings": "17beta-estradiol: 10 nM; 12 h", "values": [{"substance": "MQESQETHISNHLDEVVAAVSITHRKKFQNKLLQTALFQPPREKLHLCEEKAKSYSNSHEYKQAVHELVRCVALTRICYGDSHWKLAEAHVNLAQGYLQLKGLSLQAKQHAEKARQILANSIVPPYSENTDVFKFSIELFHTMGRALLSLQKFKEAAENLTKAERLSKELLQCGRIIKEEWIEIEARIRLSFAQVYQGQKKSKEALSHYQAALEYVEISKGETSRECVPILRELAGVEQALGLHDVSINHFLQAHLIILSRSPSQVEAADSAHIVAHAAVASGRHEHHDVAEQYFQESMAHLKDSEGMGRTKFLSIQDEFCHFLQMTGQKERATSILRESLEAKVEAFGDFSPEVAETYRLLGGADLAQGNHSGARKKLKKCLQIQTLLYGPQDKRTLATQQAMGMLSTAPKVASKPRQASKAKVAFCTSIPQDTLLGKARPGTTAD [TTC23]", "relative ERE luciferase activity": 0.89}, {"substance": "MEDCCMLPYYTAQSSPAMGMFNTSMGKLQRQLYKGEYTIFRYAPMFESDFIQISKRGEVIDVHNRARMVTMGIVRTSPCLTLPDVMLLARPAAVCDNARCGPATQKRESPPAEILELTRLLPLMFVKITIHNSVKKQLHLKLATGRSFYLQLCPPSDASEDLFVHWENLVYILRPPVEAYSDTRAILAGNTLDSSVLEEVQRSPVGYAMKFCEEKEQFRISRLHMNAEMFGSTYCDYTIEI [FAM71C]", "relative ERE luciferase activity": 1}, {"substance": "MDPEVTLLLQCPGGGLPQEQIQAELSPAHDRRPLPGGDEAITAIWETRLKAQPWLFDAPKFRLHSATLAPIGSRGPQLLLRLGLTSYRDFLGTNWSSSAAWLRQQGATDWGDTQAYLADPLGVGAALATADDFLVFLRRSRQVAEAPGLVDVPGGHPEPQALCPGGSPQHQDLAGQLVVHELFSSVLQEICDEVNLPLLTLSQPLLLGIARNETSAGRASAEFYVQCSLTSEQVRKHYLSGGPEAHESTGIFFVETQNVQRLLETEMWAELCPSAKGAIILYNRVQGSPTGAALGSPALLPPL [NUDT22]", "relative ERE luciferase activity": 1.61}, {"substance": "CBWD1", "relative ERE luciferase activity": 1.22}, {"substance": "MNKRDYMNTSVQEPPLDYSFRSIHVIQDLVNEEPRTGLRPLKRSKSGKSLTQSLWLNNNVLNDLRDFNQVASQLLEHPENLAWIDLSFNDLTSIDPVLTTFFNLSVLYLHGNSIQRLGEVNKLAVLPRLRSLTLHGNPMEEEKGYRQYVLCTLSRITTFDFSGVTKADRTTAEVWKRMNIKPKKAWTKQNTL [LRRC51]", "relative ERE luciferase activity": 1.11}, {"substance": "ZNF785", "relative ERE luciferase activity": 1.18}, {"substance": "MNRKKLQKLTDTLTKNCKHFNKFEVNCLIKLFYDLVGGVERQGLVVGLDRNAFRNILHVTFGMTDDMIMDRVFRGFDKDNDGCVNVLEWIHGLSLFLRGSLEEKMKYCFEVFDLNGDGFISKEEMFHMLKNSLLKQPSEEDPDEGIKDLVEITLKKMDHDHDGKLSFADYELAVREETLLLEAFGPCLPDPKSQMEFEAQVFKDPNEFNDM [EFCAB1]", "relative ERE luciferase activity": 0.364}, {"substance": "MSLLLYYALPALGSYAMLSIFFLRRPHLLHTPRAPTFRIRLGAHRGGSGELLENTMEAMENSMAQRSDLLELDCQLTRDRVVVVSHDENLCRQSGLNRDVGSLDFEDLPLYKEKLEVYFSPGHFAHGSDRRMVRLEDLFQRFPRTPMSVEIKGKNEELIREIAGLVRRYDRNEITIWASEKSSVMKKCKAANPEMPLSFTISRGFWVLLSYYLGLLPFIPIPEKFFFCFLPNIINRTYFPFSCSCLNQLLAVVSKWLIMRKSLIRHLEERGVQVVFWCLNEESDFEAAFSVGATGVITDYPTALRHYLDNHGPAARTS [GDPD3]", "relative ERE luciferase activity": 1.04}, {"substance": "MSTIQNLQSFDPFADATKGDDLLPAGTEDYIHIRIQQRNGRKTLTTVQGIADDYDKKKLVKAFKKKFACNGTVIEHPEYGEVIQLQGDQRKNICQFLLEVGIVKEEQLKVHGF [EIF1B]", "relative ERE luciferase activity": 1.32}, {"substance": "MAAPSPGPREVLAPSPEAGCRAVTSSRRGLLWRLRDKQSRLGLFEISPGHELHGMTCMMQAGLWAATQVSMDHPPTGPPSRDDFSEVLTQVHEGFELGTLAGPAFAWLRRSLGLAEEDYQAALGPGGPYLQFLSTSKSKASFFLSHDQRFFLKTQGRREVQALLAHLPRYVQHLQRHPHSLLARLLGVHSLRVDRGKKTYFIVMQSVFYPAGRISERYDIKGCEVSRWVDPAPEGSPLVLVLKDLNFQGKTINLGPQRSWFLRQMELDTTFLRELNVLDYSLLIAFQRLHEDERGPGSSLIFRTARSVQGAQSPEESRAQNRRLLPDAPNALHILDGPEQRYFLGVVDLATVYGLRKRLEHLWKTLRYPGRTFSTVSPARYARRLCQWVEAHTE [PIP5KL1]", "relative ERE luciferase activity": 2.55}, {"substance": "MDSRLQEIRERQKLRRQLLAQQLGAESADSIGAVLNSKDEQREIAETRETCRASYDTSAPNAKRKYLDEGETDEDKMEEYKDELEMQQDEENLPYEEEIYKDSSTFLKGTQSLNPHNDYCQHFVDTGHRPQNFIRDVGLADRFEEYPKLRELIRLKDELIAKSNTPPMYLQADIEAFDIRELTPKFDVILLEPPLEEYYRETGITANEKCWTWDDIMKLEIDEIAAPRSFIFLWCGSGEGLDLGRVCLRKWGYRRCEDICWIKTNKNNPGKTKTLDPKAVFQRTKEHCLMGIKGTVKRSTDGDFIHANVDIDLIITEEPEIGNIEKPVEIFHIIEHFCLGRRRLHLFGRDSTIRPGWLTVGPTLTNSNYNAETYASYFSAPNSYLTGCTEEIERLRPKSPPPKSKSDRGGGAPRGGGRGGTSAGRGRERNRSNFRGERGGFRGGRGGAHRGGFPPR [KIAA1627]", "relative ERE luciferase activity": "1 ± 0.14"}, {"substance": "MPGRSSSNSGSTGFISFSGVESALSSLKNFQACINSGMDTASSVALDLVESQTEVSSEYSMDKAMVEFATLDRQLNHYVKAVQSTINHVKEERPEKIPDLKLLVEKKFLALQSKNSDADFQNNEKFVQFKQQLKELKKQCGLQADREADGTEGVDEDIIVTQSQTNFTCPITKEEMKKPVKNKVCGHTYEEDAIVRMIESRQKRKKKAYCPQIGCSHTDIRKSDLIQDEALRRAIENHNKKRHRHSE [NSMCE2]", "relative ERE luciferase activity": 0.861}, {"substance": "MSLCSACTSPASHQLLLNCQGQTVAKSHSSADAGVSLVSGRWCAWWPEHCSESMFPSQHPVLSSNLADSSGQGRSPAGAHPALCPFHKSPWFPHFPQILPREWSWCGPERPAGCSLGLKAEAALVGKK [C6orf208]", "relative ERE luciferase activity": 1.05}, {"substance": "MSTLCPPPSPAVAKTEIALSGKSPLLAATFAYWDNILGPRVRHIWAPKTEQVLLSDGEITFLANHTLNGEILRNAESGAIDVKFFVLSEKGVIIVSLIFDGNWNGDRSTYGLSIILPQTELSFYLPLHRVCVDRLTHIIRKGRIWMHKERQENVQKIILEGTERMEDQGQSIIPMLTGEVIPVMELLSSMKSHSVPEEIDIADTVLNDDDIGDSCHEGFLLNAISSHLQTCGCSVVVGSSAEKVNKIVRTLCLFLTPAERKCSRLCEAESSFKYESGLFVQGLLKDSTGSFVLPFRQVMYAPYPTTHIDVDVNTVKQMPPCHEHIYNQRRYMRSELTAFWRATSEEDMAQDTIIYTDESFTPDLNIFQDVLHRDTLVKAFLDQVFQLKPGLSLRSTFLAQFLLVLHRKALTLIKYIEDDTQKGKKPFKSLRNLKIDLDLTAEGDLNIIMALAEKIKPGLHSFIFGRPFYTSVQERDVLMTF [C9orf72]", "relative ERE luciferase activity": 1.09}, {"substance": "MTKTSTCIYHFLVLSWYTFLNYYISQEGKDEVKPKILANGARWKYMTLLNLLLQTIFYGVTCLDDVLKRTKGGKDIKFLTAFRDLLFTTLAFPVSTFVFLAFWILFLYNRDLIYPKVLDTVIPVWLNHAMHTFIFPITLAEVVLRPHSYPSKKTGLTLLAAASIAYISRILWLYFETGTWVYPVFAKLSLLGLAAFFSLSYVFIASIYLLGEKLNHWKWGDMRQPRKKRK [C6orf105]", "relative ERE luciferase activity": 1.12}, {"substance": "MSTSTSPAAMLLRRLRRLSWGSTAVQLFILTVVTFGLLAPLACHRLLHSYFYLRHWHLNQMSQEFLQQSLKEGEAALHYFEELPSANGSVPIVWQATPRPWLVITIITVDRQPGFHYVLQVVSQFHRLLQQCGPQCEGHQLFLCNVERSVSHFDAKLLSKYVPVANRYEGTEDDYGDDPSTNSFEKEKQDYVYCLESSLQTYNPDYVLMVEDDAVPEEQIFPVLEHLLRARFSEPHLRDALYLKLYHPERLQHYINPEPMRILEWVGVGMLLGPLLTWIYMRFASRPGFSWPVMLFFSLYSMGLVELVGRHYFLELRRLSPSLYSVVPASQCCTPAMLFPAPAARRTLTYLSQVYCHKGFGKDMALYSLLRAKGERAYVVEPNLVKHIGLFSSLRYNFHPSLL [C9orf125]", "relative ERE luciferase activity": "1.83 ± 1.2"}, {"substance": "VCX", "relative ERE luciferase activity": 3.15}, {"substance": "MEDKRSLSMARCEERNSRGQDHGLERVPFPPQLQSETYLHPADPSPAWDDPGSTGSPNLRLLTEEIAFQPLAEEASFRRPHPDGDVPPQGEDNLLSLPFPQKLWRLVSSNQFSSIWWDDSGACRVINQKLFEKEILKRDVAHKVFATTSIKSFFRQLNLYGFRKRRQCTFRTFTRIFSAKRLVSILNKLEFYCHPYFQRDSPHLLVRMKRRVGVKSAPRHQEEDKPEAAGSCLAPADTEQQDHTSPNENDQVTPQHREPAGPNTQIRSGSAPPATPVMVPDSAVASDNSPVTQPAGEWSEGSQAHVTPVAAVPGPAALPFLYVPGSPTQMNSYGPVVALPTASRSTLAMDTTGLPAPGMLPFCHLWVPVTLVAAGAAQPAASMVMFPHLPALHHHCPHSHRTSQYMPASDGPQAYPDYADQST [HSFX1]", "relative ERE luciferase activity": 1.32}, {"substance": "MAALIAENFRFLSLFFKSKDVMIFNGLVALGTVGSQELFSVVAFHCPCSPARNYLYGLAAIGVPALVLFIIGIILNNHTWNLVAECQHRRTKNCSAAPTFLLLSSILGRAAVAPVTWSVISLLRGEAYVCALSEFVDPSSLTAREEHFPSAHATEILARFPCKENPDNLSDFREEVSRRLRYESQLFGWLLIGVVAILVFLTKCLKHYCSPLSYRQEAYWAQYRANEDQLFQRTAEVHSRVLAANNVRRFFGFVALNKDDEELIANFPVEGTQPRPQWNAITGVYLYRENQGLPLYSRLHKWAQGLAGNGAAPDNVEMALLPS [FAM26B]", "relative ERE luciferase activity": 1.09}, {"substance": "MLPGVGVFGTSLTARVIIPLLKDEGFAVKALWGRTQEEAEELAKEMSVPFYTSRIDEVLLHQDVDLVCINLPPPLTRQIAVKTLGIGKNVICDRTATPLDAFRMTSAAHYYPKLMSIMGNVLRFLPAFVRMKQLIEEGYVGEPLVCEVQVHGGSLLGKKYNWSCDDLMGGGGLHSVGTYIIDLLTFLTGQKAVKVHGLLKTFVKQTDHIKGIRQITSDDFCTFQMVLEGGVCCTVTLNFNVPGEFKQDVTVVGSAGRLLAVGTDLYGQRNSAPEQELLVQDATPVSNSLLPEKAFSDIPSPYLRGTIKMMQAVRQAFQDQDDRRTWDGRPLTMAATFDDCLYALCVVDTIKRSSQTGEWQNIAIMTEEPELSPAYLISEAMRRSRMSLYC [GFOD1]", "relative ERE luciferase activity": 0.978}, {"substance": "MTTEIGWWKLTFLRKKKSTPKVLYEIPDTYAQTEGDAEPPRPDAGGPNSDFNTRLEKIVDKSTKGKHVKVSNSGRFKEKKKVRATLAENPNLFDDHEEGRSSK [ATAD4]", "relative ERE luciferase activity": 1.02}, {"substance": "MNAIVALCHFCELHGPRTLFCTEVLHAPLPQGDGNEDSPGQGEQAEEEEGGIQMNSRMRAHSPAEGASVESSSPGPKKSDMCEGCRSLAAGHPGYISHDKETSIKYVSHQHPSHPQLFSIVRQACVRSLSCEVCPGREGPIFFGDEQHGFVFSHTFFIKDSLARGFQRWYSIITIMMDRIYLINSWPFLLGKVRGIIDELQGKALKVFEAEQFGCPQRAQRMNTAFTPFLHQRNGNAARSLTSLTSDDNLWACLHTSFAWLLKACGSRLTEKLLEGAPTEDTLVQMEKLADLEEESESWDNSEAEEEEKAPVLPESTEGRELTQGPAESSSLSGCGSWQPRKLPVFKSLRHMRQVLGAPSFRMLAWHVLMGNQVIWKSRDVDLVQSAFEVLRTMLPVGCVRIIPYSSQYEEAYRCNFLGLSPHVQIPPHVLSSEFAVIVEVHAAARSTLHPVGCEDDQSLSKYEFVVTSGSPVAADRVGPTILNKIEAALTNQNLSVDVVDQCLVCLKEEWMNKVKVLFKFTKVDSRPKEDTQKLLSILGASEEDNVKLLKFWMTGLSKTYKSHLMSTVRSPTASESRN [FLCN]", "relative ERE luciferase activity": "1.16 ± 0.2"}]}]}
